Experimental data: PubChem BioAssay AID1224828 (NIAID, 2016)
In all, the deposit lists about 17,000 reagents; below is an unselected part. 762 of all reagents (4.5%) were called active. 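Active calls include both raised and lowered p65 entry, mostly lowered; wells with fewer than 50 cells lack a z-score.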 The raw values are shown without normalisation. Unmarked entries are inactive.

Purpose: 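Knock-downs that increase or decrease LPS-induced p65 nuclear translocation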 (primary screen)
Cell system: mouse RAW264.7 G9 macrophage reporter cells (GFP-p65, Tnf promoter-mCherry)
Reagents: siRNA pool against mouse genes, 100 nM
Time to read-out: 2 days siRNA transfection, then 40 min LPS before fixation
Conditions: LPS (Salmonella minnesota R595) at 10 ng/ml
Measurement: 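Microscopy ratio of nuclear to perinuclear-ring GFP-p65 signal, scaled to the plate median; gene score is the average of two replicate robust z-scores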
Direction: p65 translocation robust z-score: higher = more nuclear NF-kappaB p65 after LPS than the plate median; nuclear/cytoplasmic p65 ratio: higher = more nuclear NF-kappaB p65
Hit rule: 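Active if robust z is above 3.3 (negative regulators) or below -1.56, the Tlr4 control median (positive regulators); activity score 50 or more; control wells not called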
Calls: active = hit (p65 shift raised or lowered); inactive = no clear change

{"gene": "Stbd1 (GeneID 52331)", "p65 translocation robust z-score": 1.43, "nuclear/cytoplasmic p65 ratio, rep 1": 1.71, "nuclear/cytoplasmic p65 ratio, rep 2": 1.82, "low cell count flag": "enough cells to score"}
{"gene": "Slc36a1 (GeneID 215335)", "nuclear/cytoplasmic p65 ratio, rep 1": 1.13, "nuclear/cytoplasmic p65 ratio, rep 2": 0.971, "low cell count flag": "fewer than 50 cells per well; well left out of scoring"}
{"gene": "Cfap126 (GeneID 75472)", "nuclear/cytoplasmic p65 ratio, rep 1": 1.59, "nuclear/cytoplasmic p65 ratio, rep 2": 1.55, "low cell count flag": "fewer than 50 cells per well; well left out of scoring"}
{"gene": "Aimp2 (GeneID 231872)", "p65 translocation robust z-score": 0.35, "nuclear/cytoplasmic p65 ratio, rep 1": 1.65, "nuclear/cytoplasmic p65 ratio, rep 2": 1.43, "low cell count flag": "enough cells to score"}
{"gene": "Kcnk4 (GeneID 16528)", "p65 translocation robust z-score": 0.93, "nuclear/cytoplasmic p65 ratio, rep 1": 1.73, "nuclear/cytoplasmic p65 ratio, rep 2": 1.51, "low cell count flag": "enough cells to score"}
{"gene": "Nudt16l2 (GeneID 73532)", "nuclear/cytoplasmic p65 ratio, rep 1": 1.3, "nuclear/cytoplasmic p65 ratio, rep 2": 1.3, "low cell count flag": "fewer than 50 cells per well; well left out of scoring"}
{"gene": "Cnst (GeneID 226744)", "nuclear/cytoplasmic p65 ratio, rep 1": 1.6, "nuclear/cytoplasmic p65 ratio, rep 2": 1.69, "low cell count flag": "fewer than 50 cells per well; well left out of scoring"}
{"gene": "Map3k13 (GeneID 71751)", "p65 translocation robust z-score": -1.4, "nuclear/cytoplasmic p65 ratio, rep 1": 1.45, "nuclear/cytoplasmic p65 ratio, rep 2": 1.38, "low cell count flag": "enough cells to score"}
{"gene": "Gpr19 (GeneID 14760)", "p65 translocation robust z-score": -0.04, "nuclear/cytoplasmic p65 ratio, rep 1": 1.46, "nuclear/cytoplasmic p65 ratio, rep 2": 1.61, "low cell count flag": "enough cells to score"}
{"gene": "Vps9d1 (GeneID 72325)", "p65 translocation robust z-score": -0.73, "nuclear/cytoplasmic p65 ratio, rep 1": 1.57, "nuclear/cytoplasmic p65 ratio, rep 2": 1.44, "low cell count flag": "enough cells to score"}
{"gene": "Amy2a5 (GeneID 109959)", "p65 translocation robust z-score": 0.62, "nuclear/cytoplasmic p65 ratio, rep 1": 1.76, "nuclear/cytoplasmic p65 ratio, rep 2": 1.72, "low cell count flag": "enough cells to score"}
{"gene": "Tafazzin (GeneID 66826)", "p65 translocation robust z-score": -0.5, "nuclear/cytoplasmic p65 ratio, rep 1": 1.51, "nuclear/cytoplasmic p65 ratio, rep 2": 1.39, "low cell count flag": "enough cells to score"}
{"gene": "Upp2 (GeneID 76654)", "p65 translocation robust z-score": "-1.63 (active)", "nuclear/cytoplasmic p65 ratio, rep 1": 1.07, "nuclear/cytoplasmic p65 ratio, rep 2": 1.14, "low cell count flag": "enough cells to score"}
{"gene": "Igfbp4 (GeneID 16010)", "p65 translocation robust z-score": 0.93, "nuclear/cytoplasmic p65 ratio, rep 1": 1.48, "nuclear/cytoplasmic p65 ratio, rep 2": 1.56, "low cell count flag": "enough cells to score"}

2 of these entries, reformatted:
| gene | p65 translocation robust z-score | nuclear/cytoplasmic p65 ratio, rep 1 | nuclear/cytoplasmic p65 ratio, rep 2 | low cell count flag |
| --- | --- | --- | --- | --- |
| Cnst (GeneID 226744) | – | 1.6 | 1.69 | fewer than 50 cells per well; well left out of scoring |
| Map3k13 (GeneID 71751) | -1.4 | 1.45 | 1.38 | enough cells to score |
